In the supplement of paper PMC9233669:
This sample is rich in variants without activity.

Experiments:
biotinyl-Val-oxazolone = assay: self-aminoacylation, catalytic enhancement (BVO) (fold over background); higher = more active; k-Seq, kA / k0A0; sequences stand for … in GGGAAUGGAUCCACAUCUACGAAUUC…UUCACUGCAGACUUGACGAAGCUG
Summary of the method: (§1)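 Working in 50 μL HEPES/NaCl/KCl/MgCl2/CaCl2 buffer with 5% acetonitrile at pH 6.9–7.0, mutagenized RNA pools (0.43 μM; 21-nt variable region) were reacted with 2–1250 μM of each biotinyl-aminoacyl-oxazolone for 90 minutes at room temperature. Streptavidin capture followed, with quantification by triplicate qPCR and Illumina sequencing. Catalytic enhancement is reported as median kA over the uncatalyzed rate, the low-activity peak of a bimodal Gaussian fit to the data.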

biotinyl-Met-oxazolone = assay: self-aminoacylation, catalytic enhancement (BMO) (fold over background); higher = more active; k-Seq, kA / k0A0; sequences stand for … in GGGAAUGGAUCCACAUCUACGAAUUC…UUCACUGCAGACUUGACGAAGCUG
Summary of the method: as §1

biotinyl-Ile-oxazolone = assay: self-aminoacylation, catalytic enhancement (BIO) (fold over background); higher = more active; k-Seq, kA / k0A0; sequences stand for … in GGGAAUGGAUCCACAUCUACGAAUUC…UUCACUGCAGACUUGACGAAGCUG
Summary of the method: as §1

biotinyl-Trp-oxazolone = assay: self-aminoacylation, catalytic enhancement (BWO) (fold over background); higher = more active; k-Seq, kA / k0A0; sequences stand for … in GGGAAUGGAUCCACAUCUACGAAUUC…UUCACUGCAGACUUGACGAAGCUG
Summary of the method: as §1

biotinyl-Leu-oxazolone = assay: self-aminoacylation, catalytic enhancement (BLO) (fold over background); higher = more active; k-Seq, kA / k0A0; sequences stand for … in GGGAAUGGAUCCACAUCUACGAAUUC…UUCACUGCAGACUUGACGAAGCUG
Summary of the method: as §1

Sequence: ACACACUUCAAGCAACCGGUC [Fam1B.1 aminoacylation ribozyme variant]
- self-aminoacylation (biotinyl-Val-oxazolone): 1.54
- self-aminoacylation (biotinyl-Met-oxazolone): 1.51
- self-aminoacylation (biotinyl-Ile-oxazolone): 1.18
- self-aminoacylation (biotinyl-Trp-oxazolone): 1.13
- self-aminoacylation (biotinyl-Leu-oxazolone): 1.17

Sequence: ACACACUUCAAGCGAUCGGUC [Fam1B.1 aminoacylation ribozyme variant]
- self-aminoacylation (biotinyl-Val-oxazolone): 1.34
- self-aminoacylation (biotinyl-Met-oxazolone): 1.18
- self-aminoacylation (biotinyl-Ile-oxazolone): 1.39
- self-aminoacylation (biotinyl-Trp-oxazolone): 1.49
- self-aminoacylation (biotinyl-Leu-oxazolone): 1.34

Sequence: ACGUGUGCUAAUAGUCGCAAG [Fam3.1 aminoacylation ribozyme variant]
- self-aminoacylation (biotinyl-Val-oxazolone): 1.28
- self-aminoacylation (biotinyl-Met-oxazolone): 1.62
- self-aminoacylation (biotinyl-Ile-oxazolone): 1.6
- self-aminoacylation (biotinyl-Trp-oxazolone): 1.63
- self-aminoacylation (biotinyl-Leu-oxazolone): 1.68

Sequence: ACGUUUGCUAAUAGUCGCAGG [Fam3.1 aminoacylation ribozyme variant]
- self-aminoacylation (biotinyl-Val-oxazolone): 1.56
- self-aminoacylation (biotinyl-Met-oxazolone): 1.78
- self-aminoacylation (biotinyl-Ile-oxazolone): 1.49
- self-aminoacylation (biotinyl-Trp-oxazolone): 1
- self-aminoacylation (biotinyl-Leu-oxazolone): 1.58

Sequence: ACUCACCUAGGUCAUCGGGUU [Fam2.2 aminoacylation ribozyme variant]
- self-aminoacylation (biotinyl-Val-oxazolone): 5.06
- self-aminoacylation (biotinyl-Met-oxazolone): 8.19
- self-aminoacylation (biotinyl-Ile-oxazolone): 5.92
- self-aminoacylation (biotinyl-Trp-oxazolone): 6.68
- self-aminoacylation (biotinyl-Leu-oxazolone): 11.3

Sequence: AGUACCCCGGUCAUCGAGUGA [Fam2.1 aminoacylation ribozyme variant]
- self-aminoacylation (biotinyl-Val-oxazolone): 3.75
- self-aminoacylation (biotinyl-Met-oxazolone): 5.52
- self-aminoacylation (biotinyl-Ile-oxazolone): 3.7
- self-aminoacylation (biotinyl-Trp-oxazolone): 7.21
- self-aminoacylation (biotinyl-Leu-oxazolone): 6.8

Sequence: AGUACCCUGGUCAUCGAGUGC [Fam2.1 aminoacylation ribozyme variant]
- self-aminoacylation (biotinyl-Val-oxazolone): 1.31
- self-aminoacylation (biotinyl-Met-oxazolone): 1.91
- self-aminoacylation (biotinyl-Ile-oxazolone): 1.09
- self-aminoacylation (biotinyl-Trp-oxazolone): 1.3
- self-aminoacylation (biotinyl-Leu-oxazolone): 1.77

Sequence: AUAACCCUGGUCAUCCAGUGA [Fam2.1 aminoacylation ribozyme variant]
- self-aminoacylation (biotinyl-Val-oxazolone): 3.21
- self-aminoacylation (biotinyl-Met-oxazolone): 5.52
- self-aminoacylation (biotinyl-Ile-oxazolone): 3.62
- self-aminoacylation (biotinyl-Trp-oxazolone): 6.17
- self-aminoacylation (biotinyl-Leu-oxazolone): 6.28

Sequence: AUACACCUAGGUCAGCGGGUG [Fam2.2 aminoacylation ribozyme variant]
- self-aminoacylation (biotinyl-Val-oxazolone): 2.15
- self-aminoacylation (biotinyl-Met-oxazolone): 3.8
- self-aminoacylation (biotinyl-Ile-oxazolone): 2.29
- self-aminoacylation (biotinyl-Trp-oxazolone): 3.08
- self-aminoacylation (biotinyl-Leu-oxazolone): 3.49

Sequence: AUGACCCUGGUCAUCGCGUGA [Fam2.1 aminoacylation ribozyme variant]
- self-aminoacylation (biotinyl-Val-oxazolone): 7.53
- self-aminoacylation (biotinyl-Met-oxazolone): 16
- self-aminoacylation (biotinyl-Ile-oxazolone): 7.46
- self-aminoacylation (biotinyl-Trp-oxazolone): 19.7
- self-aminoacylation (biotinyl-Leu-oxazolone): 17.1

Sequence: AUGUUUGCUAAUAGUCGGAAG [Fam3.1 aminoacylation ribozyme variant]
- self-aminoacylation (biotinyl-Val-oxazolone): 0.847
- self-aminoacylation (biotinyl-Met-oxazolone): 0.991
- self-aminoacylation (biotinyl-Ile-oxazolone): 1.12
- self-aminoacylation (biotinyl-Trp-oxazolone): 1.93
- self-aminoacylation (biotinyl-Leu-oxazolone): 0.93

Sequence: AUUACAUUGGUCAUCGAGUGA [Fam2.1 aminoacylation ribozyme variant]
- self-aminoacylation (biotinyl-Val-oxazolone): 2.95
- self-aminoacylation (biotinyl-Met-oxazolone): 5.35
- self-aminoacylation (biotinyl-Ile-oxazolone): 3.03
- self-aminoacylation (biotinyl-Trp-oxazolone): 6.85
- self-aminoacylation (biotinyl-Leu-oxazolone): 5.8

Sequence: AUUACCCUGGCCAUCCAGUGA [Fam2.1 aminoacylation ribozyme variant]
- self-aminoacylation (biotinyl-Val-oxazolone): 4.01
- self-aminoacylation (biotinyl-Met-oxazolone): 7.34
- self-aminoacylation (biotinyl-Ile-oxazolone): 4.38
- self-aminoacylation (biotinyl-Trp-oxazolone): 7.75
- self-aminoacylation (biotinyl-Leu-oxazolone): 8.23

Sequence: AUUACCCUGGUAACCGAGUGA [Fam2.1 aminoacylation ribozyme variant]
- self-aminoacylation (biotinyl-Val-oxazolone): 5.58
- self-aminoacylation (biotinyl-Met-oxazolone): 12.5
- self-aminoacylation (biotinyl-Ile-oxazolone): 5.22
- self-aminoacylation (biotinyl-Trp-oxazolone): 14.2
- self-aminoacylation (biotinyl-Leu-oxazolone): 12.2

Sequence: AUUACCCUGGUCAUCAUGUGA [Fam2.1 aminoacylation ribozyme variant]
- self-aminoacylation (biotinyl-Val-oxazolone): 3.17
- self-aminoacylation (biotinyl-Met-oxazolone): 6.44
- self-aminoacylation (biotinyl-Ile-oxazolone): 2.67
- self-aminoacylation (biotinyl-Trp-oxazolone): 6.97
- self-aminoacylation (biotinyl-Leu-oxazolone): 6.36

Sequence: AUUACCCUGGUCAUCCAGAGA [Fam2.1 aminoacylation ribozyme variant]
- self-aminoacylation (biotinyl-Val-oxazolone): 1.47
- self-aminoacylation (biotinyl-Met-oxazolone): 1.71
- self-aminoacylation (biotinyl-Ile-oxazolone): 1.22
- self-aminoacylation (biotinyl-Trp-oxazolone): 1.44

Sequence: AUUACCCUGGUCCUCGAGUGC [Fam2.1 aminoacylation ribozyme variant]
- self-aminoacylation (biotinyl-Val-oxazolone): 1.06
- self-aminoacylation (biotinyl-Met-oxazolone): 0.658
- self-aminoacylation (biotinyl-Ile-oxazolone): 0.969
- self-aminoacylation (biotinyl-Trp-oxazolone): 1.31
- self-aminoacylation (biotinyl-Leu-oxazolone): 1.07

Sequence: AUUACCCUGGUCUUCGAGUGA [Fam2.1 aminoacylation ribozyme variant]
- self-aminoacylation (biotinyl-Val-oxazolone): 3.3
- self-aminoacylation (biotinyl-Met-oxazolone): 5.36
- self-aminoacylation (biotinyl-Ile-oxazolone): 3.09
- self-aminoacylation (biotinyl-Trp-oxazolone): 6.84
- self-aminoacylation (biotinyl-Leu-oxazolone): 5.52

Sequence: AUUAUCCUGGUCAUCGAGUUA [Fam2.1 aminoacylation ribozyme variant]
- self-aminoacylation (biotinyl-Val-oxazolone): 1.31
- self-aminoacylation (biotinyl-Met-oxazolone): 1.62
- self-aminoacylation (biotinyl-Ile-oxazolone): 1.2
- self-aminoacylation (biotinyl-Trp-oxazolone): 1.09
- self-aminoacylation (biotinyl-Leu-oxazolone): 1.51

Sequence: AUUAUCCUGGUCAUCUAGUGA [Fam2.1 aminoacylation ribozyme variant]
- self-aminoacylation (biotinyl-Val-oxazolone): 4.98
- self-aminoacylation (biotinyl-Met-oxazolone): 10.6
- self-aminoacylation (biotinyl-Ile-oxazolone): 4.87
- self-aminoacylation (biotinyl-Trp-oxazolone): 13.2
- self-aminoacylation (biotinyl-Leu-oxazolone): 10.8

Sequence: AUUCACCGAGGUCAUCAGGUG [Fam2.2 aminoacylation ribozyme variant]
- self-aminoacylation (biotinyl-Val-oxazolone): 1.59
- self-aminoacylation (biotinyl-Met-oxazolone): 1.81
- self-aminoacylation (biotinyl-Ile-oxazolone): 1.28
- self-aminoacylation (biotinyl-Trp-oxazolone): 1.81

Sequence: AUUCACCUACGUCAUCGAGUG [Fam2.2 aminoacylation ribozyme variant]
- self-aminoacylation (biotinyl-Val-oxazolone): 2.71
- self-aminoacylation (biotinyl-Met-oxazolone): 4.25
- self-aminoacylation (biotinyl-Ile-oxazolone): 2.45
- self-aminoacylation (biotinyl-Trp-oxazolone): 3.77
- self-aminoacylation (biotinyl-Leu-oxazolone): 4.08

Sequence: AUUCACCUACGUCGUCGGGUG [Fam2.2 aminoacylation ribozyme variant]
- self-aminoacylation (biotinyl-Val-oxazolone): 1.52
- self-aminoacylation (biotinyl-Met-oxazolone): 1.31
- self-aminoacylation (biotinyl-Ile-oxazolone): 1.56
- self-aminoacylation (biotinyl-Trp-oxazolone): 1.83

Sequence: AUUCACCUAGGUCAUCGCGAG [Fam2.2 aminoacylation ribozyme variant]
- self-aminoacylation (biotinyl-Val-oxazolone): 2.31
- self-aminoacylation (biotinyl-Met-oxazolone): 1.76
- self-aminoacylation (biotinyl-Ile-oxazolone): 1.58
- self-aminoacylation (biotinyl-Trp-oxazolone): 1.22
- self-aminoacylation (biotinyl-Leu-oxazolone): 1.89

Sequence: AUUCACCUAGGUCAUCGUGCG [Fam2.2 aminoacylation ribozyme variant]
- self-aminoacylation (biotinyl-Val-oxazolone): 1.41
- self-aminoacylation (biotinyl-Met-oxazolone): 1.62
- self-aminoacylation (biotinyl-Ile-oxazolone): 1.21
- self-aminoacylation (biotinyl-Trp-oxazolone): 0.796
- self-aminoacylation (biotinyl-Leu-oxazolone): 1.65

Sequence: AUUCACCUAGGUCCUCGUGUG [Fam2.2 aminoacylation ribozyme variant]
- self-aminoacylation (biotinyl-Val-oxazolone): 1.14
- self-aminoacylation (biotinyl-Met-oxazolone): 1.31
- self-aminoacylation (biotinyl-Ile-oxazolone): 1.04
- self-aminoacylation (biotinyl-Trp-oxazolone): 0.792
- self-aminoacylation (biotinyl-Leu-oxazolone): 1.54

Sequence: AUUCACCUAGGUGAGCGGGUG [Fam2.2 aminoacylation ribozyme variant]
- self-aminoacylation (biotinyl-Val-oxazolone): 1.63
- self-aminoacylation (biotinyl-Met-oxazolone): 1.5
- self-aminoacylation (biotinyl-Ile-oxazolone): 1.42
- self-aminoacylation (biotinyl-Trp-oxazolone): 1.69
- self-aminoacylation (biotinyl-Leu-oxazolone): 1.66

Sequence: CAGUUUGCUAAUAGUCGCAAA [Fam3.1 aminoacylation ribozyme variant]
- self-aminoacylation (biotinyl-Val-oxazolone): 1.62
- self-aminoacylation (biotinyl-Met-oxazolone): 1.96
- self-aminoacylation (biotinyl-Trp-oxazolone): 1.69
- self-aminoacylation (biotinyl-Leu-oxazolone): 1.98
